Experimental data published in article PMC10984912.

Biological target: T1, OsWRKY45-BD (rice) (UniProt Q5W6D6)
T1 sequence: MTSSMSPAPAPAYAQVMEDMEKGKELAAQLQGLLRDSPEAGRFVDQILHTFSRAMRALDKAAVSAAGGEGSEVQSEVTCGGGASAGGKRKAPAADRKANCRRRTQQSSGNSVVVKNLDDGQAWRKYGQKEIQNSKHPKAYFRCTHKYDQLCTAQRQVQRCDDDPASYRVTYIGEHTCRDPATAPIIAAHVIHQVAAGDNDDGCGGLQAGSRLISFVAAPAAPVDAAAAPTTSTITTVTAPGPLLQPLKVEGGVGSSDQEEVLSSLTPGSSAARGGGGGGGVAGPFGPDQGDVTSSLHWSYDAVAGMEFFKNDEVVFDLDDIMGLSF
Assay: two-hybrid

- binding: binds
Substance: OsMED16 in pGADT7 (AD fusion)

Results are given in words; binding and its absence hold for the method and conditions named. A result given as binding can be weak or reduced; the word gives no strength. Where a sequence is shown, tags or fusion partners need not be part of it.
